These are yes or no findings as the source states them, for the method shown. In cells and extracts the contact can be indirect. Some entries that bind do so weakly or less than the wild type. Tags and fused reporters may be left off the sequences shown.
T1: 6His-MBP-HIM-3CM fusion protein (C. elegans)
T1 sequence: RDSPYGLSQGITKKNKD

B1: HTP-1 (WT) (protein, UniProt Q20305 1-352)
chain: MAPLETIYDESLNKSADSIDDKKWSKLFPRIVSDPDRSSNFMTRAIYVAFSAVLRNRNILGQEYFTKNYITEKLKCMTLCFRNPRSNQIAQLLRNAGDATKDGFLKEVSLVITNNEGDLEAIEVFSMKFIYFENGGVVARLSTDKNGQEDPHFAKLAQLVYEGGDSVRDQMVTIVRSVQFLCTKVLEPLPEEFTANFRLEYTNDAPSNFRIDGFEDSSTFYTLPDDIQSATIGHLRPGCHAANMECWSMLMSDSYEAELTLKRHLDKVSDRHGFNPVNVLYKSFNSEDSDTSLSQATTESVNDQGGNETSPVDDITESLEKAQMSPIQTRPTTRRGADGSKTRSSPYSRSCK
B2: HTP-1^∆151-162 (protein, UniProt Q20305)
chain: MAPLETIYDESLNKSADSIDDKKWSKLFPRIVSDPDRSSNFMTRAIYVAFSAVLRNRNILGQEYFTKNYITEKLKCMTLCFRNPRSNQIAQLLRNAGDATKDGFLKEVSLVITNNEGDLEAIEVFSMKFIYFENGGVVARLSTDKNGQEDGGDSVRDQMVTIVRSVQFLCTKVLEPLPEEFTANFRLEYTNDAPSNFRIDGFEDSSTFYTLPDDIQSATIGHLRPGCHAANMECWSMLMSDSYEAELTLKRHLDKVSDRHGFNPVNVLYKSFNSEDSDTSLSQATTESVNDQGGNETSPVDDITESLEKAQMSPIQTRPTTRRGADGSKTRSSPYSRSCK
B3: HTP-1^A139K (protein, UniProt Q20305 1-352)
chain: MAPLETIYDESLNKSADSIDDKKWSKLFPRIVSDPDRSSNFMTRAIYVAFSAVLRNRNILGQEYFTKNYITEKLKCMTLCFRNPRSNQIAQLLRNAGDATKDGFLKEVSLVITNNEGDLEAIEVFSMKFIYFENGGVVKRLSTDKNGQEDPHFAKLAQLVYEGGDSVRDQMVTIVRSVQFLCTKVLEPLPEEFTANFRLEYTNDAPSNFRIDGFEDSSTFYTLPDDIQSATIGHLRPGCHAANMECWSMLMSDSYEAELTLKRHLDKVSDRHGFNPVNVLYKSFNSEDSDTSLSQATTESVNDQGGNETSPVDDITESLEKAQMSPIQTRPTTRRGADGSKTRSSPYSRSCK
B4: HTP-1^(D144K L156K) (protein, UniProt Q20305 1-352)
chain: MAPLETIYDESLNKSADSIDDKKWSKLFPRIVSDPDRSSNFMTRAIYVAFSAVLRNRNILGQEYFTKNYITEKLKCMTLCFRNPRSNQIAQLLRNAGDATKDGFLKEVSLVITNNEGDLEAIEVFSMKFIYFENGGVVARLSTKKNGQEDPHFAKKAQLVYEGGDSVRDQMVTIVRSVQFLCTKVLEPLPEEFTANFRLEYTNDAPSNFRIDGFEDSSTFYTLPDDIQSATIGHLRPGCHAANMECWSMLMSDSYEAELTLKRHLDKVSDRHGFNPVNVLYKSFNSEDSDTSLSQATTESVNDQGGNETSPVDDITESLEKAQMSPIQTRPTTRRGADGSKTRSSPYSRSCK
B5: HTP-1^mut7 (protein, UniProt Q20305 1-352)
chain: MAPLETIYDESLNKSADSIDDKKWSKLFPRIVSDPDRSSNFMTRAIYVAFSAVLRNRNILGQEYFTKNYITEKLKCMTLCFRNPRSNQIAQLLRNAGDATKDGFLKEVSLVITNNEGDLEAIEVFSMKFIYFENGGVVARLSTDKNGQEDPHFAKLAQLVYEGGDSVRDQMVTIVRSVQFLCTKVLEPLPEEFTANFRLEYTNDAPSNFRIDGFEDSSTFYTLPDGIQSVTIGHLRPGHHAAHMQCWSKSMSDSYEAELTLKRHLDKVSDRHGFNPVNVLYKSFNSEDSDTSLSQATTESVNDQGGNETSPVDDITESLEKAQMSPIQTRPTTRRGADGSKTRSSPYSRSCK

Molecular target: T1, 6His-MBP-HIM-3CM fusion protein (C. elegans)
Assay: pull-down; HTP-1 versions co-expressed with 6His-MBP-HIM-3CM in E. coli; 2 mg total soluble protein incubated with HisPure Cobalt resin 1.5 h at 4 °C; 50 mM Tris-Cl pH 7.4, 200 mM NaCl, washes with 20 mM imidazole, elution with 150 mM imidazole; Coomassie-stained SDS-PAGE, HTP-1 band as a fraction of the 6His-MBP-HIM-3CM band, input against elution

Binder	binding
B1	binds
B2	binds
B3	binds
B4	binds
B5	binds

Reference: article PMC13381836
